{"source": "patent US20170364630A1", "about": "“IDENTIFICATION OF CELLULAR ANTIMICROBIAL DRUG TABLETS THROUGH INTERACTOME ANALYSIS” (Vanderbilt University, priority 2014, published 2017)", "origin": "cited, not measured here", "system": "calcium channel protein", "details": "Fish and Antzelevitch 2004", "note": "At least one structure is not confirmed: it was looked up by name or label, or the drawing left a doubt.", "data": [{"smiles": "COc1ccc2cc1Oc1ccc(cc1)C[C@H]1c3cc(c(OC)cc3CCN1C)Oc1c(OC)c(OC)cc3c1[C@H](C2)N(C)CC3", "note": "[tetrandrine]", "values": [{"measurement": "Concentration exerting comparable pharmacological activity by inhibiting calcium channel protein activity", "value": "5-10 μM"}]}]}
